Substitutions are numbered along the chain they refer to. Blank lines part the entries; values can stand above or below the binder they belong to.
Target: T1, Split CAR component B2 (BRET) (N-terminal LYN palmitoylation/myristoylation domain (membrane tethering via myristoyl/palmitoylation))
T1 construct: also called myrCD28c-CRBNΔ3; myrCD28-minCRBN3 (CRBNΔ3)
T1 chain: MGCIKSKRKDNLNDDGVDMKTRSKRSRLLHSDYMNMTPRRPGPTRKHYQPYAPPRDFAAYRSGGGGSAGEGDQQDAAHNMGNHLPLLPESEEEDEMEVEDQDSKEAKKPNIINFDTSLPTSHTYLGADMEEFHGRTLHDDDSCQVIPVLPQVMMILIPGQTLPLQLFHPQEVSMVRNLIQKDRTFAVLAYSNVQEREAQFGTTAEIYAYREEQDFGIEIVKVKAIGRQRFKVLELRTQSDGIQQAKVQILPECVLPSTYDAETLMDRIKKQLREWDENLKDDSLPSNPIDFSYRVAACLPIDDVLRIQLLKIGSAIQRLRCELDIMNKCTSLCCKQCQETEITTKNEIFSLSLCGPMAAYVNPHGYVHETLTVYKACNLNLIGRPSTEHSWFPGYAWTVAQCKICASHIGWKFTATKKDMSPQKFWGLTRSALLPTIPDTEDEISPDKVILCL
Assay: NanoBRET in 293T cells, 2 hours of pomalidomide at various concentrations with MG132; the Kd is a pomalidomide concentration, unit not given
Protocol: Cells were then trypsinized and seeded into 96 well plates, at 40,000 cells per well. The BRET assay was performed per manufacturer's instructions (Promega™). In brief, cells were incubated for 2 hours with varying concentrations of Pomalidomide or DMSO, 10 μM MG132, and 100 nM HaloTag NanoBRET 618 Ligand. NanoBRET Nano-Glo substrate was added and donor (460 nm) and acceptor (618 nm) emission were measured within 10 minutes (EnVision, Perkin Elmer). Mean corrected milliBRET units (mBU) was calculated.

- Kd (pomalidomide-dependent dimerization): 53.4
B1: FMC63-CD28-IKZF3 (HaloTag fusion for BRET) (other, not shown: large carriers)
chain: DIQMTQTTSSLSASLGDRVTISCRASQDISKYLNWYQQKPDGTVKLLIYHTSRLHSGVPSRFSGSGSGTDYSLTISNLEQEDIATYFCQQGNTLPYTFGGGTKLEITGSTSGSGKPGSGEGSTKGEVKLQESGPGLVAPSQSLSVTCTVSGVSLPDYGVSWIRQPPRKGLEWLGVIWGSETTYYNSALKSRLTIIKDNSKSQVFLKMNSLQTDDTAIYYCAKHYYYGGSYAMDYWGQGTSVTVSSAAAIEVMYPPPYLDNEKSNGTIIHVKGKHLCPSPLFPGPSKPFWVLVVVGGVLACYSLLVTVAFIIFWVRSKRSRLLHSDYMNMTPRRPGPTRKHYQPYAPPRDFAAYRSSGFNVLMVHKRSHTGERPFQCNQCGASFTQKGNLLRHIKLHTGEKPFKCHLCNYACQRRDAL
notes: also called CD19scFv-CD28-IKZF3; anti-CD19-CD28-IKZF3 wild type (wt)

- Kd (pomalidomide-dependent dimerization): 46.3
B2: FMC63-CD28-IKZF3 intracellular K0 (iK0) (HaloTag fusion for BRET) (other, not shown: large carriers)
chain: B1 chain with K317R, K339R, K365R, K386R, K394R, K400R, K403R
notes: no signal peptide limits are stated for this entry; also called iK0 split receptor
